Results as given in the supplement of paper PMC10849652.
The list shows a part of the results. Residues, ends and D or L forms follow the SMILES beside them. *: point of attachment. Cbz = O=C(OCc1ccccc1)*

By UniProt entry, the sequences of proteins in these tests, tags left out. Where a name states a change or a piece, a line headed by the entry shows the natural chain unless it says otherwise.
UniProt P69891: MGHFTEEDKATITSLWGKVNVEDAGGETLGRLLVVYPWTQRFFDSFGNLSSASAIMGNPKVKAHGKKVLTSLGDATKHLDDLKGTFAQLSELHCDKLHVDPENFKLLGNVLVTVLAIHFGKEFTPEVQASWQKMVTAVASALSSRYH
UniProt P04921: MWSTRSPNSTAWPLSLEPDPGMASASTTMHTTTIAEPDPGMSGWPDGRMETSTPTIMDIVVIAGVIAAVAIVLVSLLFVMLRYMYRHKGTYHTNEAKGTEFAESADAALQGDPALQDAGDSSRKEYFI
UniProt Q9P035: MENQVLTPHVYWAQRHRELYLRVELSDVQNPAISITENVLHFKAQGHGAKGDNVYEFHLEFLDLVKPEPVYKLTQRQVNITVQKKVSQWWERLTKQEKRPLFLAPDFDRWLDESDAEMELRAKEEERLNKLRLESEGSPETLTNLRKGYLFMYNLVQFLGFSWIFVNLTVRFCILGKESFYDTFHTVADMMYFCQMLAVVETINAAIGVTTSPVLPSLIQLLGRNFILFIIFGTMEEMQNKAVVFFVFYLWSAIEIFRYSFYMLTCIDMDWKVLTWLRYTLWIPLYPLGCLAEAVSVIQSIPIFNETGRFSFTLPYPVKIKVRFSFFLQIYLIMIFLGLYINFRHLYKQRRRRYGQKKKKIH
UniProt Q9UJ83: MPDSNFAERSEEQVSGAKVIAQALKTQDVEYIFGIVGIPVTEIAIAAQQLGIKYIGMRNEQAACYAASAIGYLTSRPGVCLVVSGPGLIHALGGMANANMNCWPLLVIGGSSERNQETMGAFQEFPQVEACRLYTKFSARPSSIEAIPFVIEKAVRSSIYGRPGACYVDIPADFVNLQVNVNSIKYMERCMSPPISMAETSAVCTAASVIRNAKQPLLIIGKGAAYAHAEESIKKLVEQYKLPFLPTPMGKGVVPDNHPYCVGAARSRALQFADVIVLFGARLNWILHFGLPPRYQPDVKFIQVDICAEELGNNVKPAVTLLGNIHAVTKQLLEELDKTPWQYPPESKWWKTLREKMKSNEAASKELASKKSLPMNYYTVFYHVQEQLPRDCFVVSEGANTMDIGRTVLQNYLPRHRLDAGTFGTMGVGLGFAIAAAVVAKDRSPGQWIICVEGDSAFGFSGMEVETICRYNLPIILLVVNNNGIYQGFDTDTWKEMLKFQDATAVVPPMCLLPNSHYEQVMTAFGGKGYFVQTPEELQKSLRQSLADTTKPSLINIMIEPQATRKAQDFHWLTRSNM
UniProt Q9Y450, whole entry, looked up: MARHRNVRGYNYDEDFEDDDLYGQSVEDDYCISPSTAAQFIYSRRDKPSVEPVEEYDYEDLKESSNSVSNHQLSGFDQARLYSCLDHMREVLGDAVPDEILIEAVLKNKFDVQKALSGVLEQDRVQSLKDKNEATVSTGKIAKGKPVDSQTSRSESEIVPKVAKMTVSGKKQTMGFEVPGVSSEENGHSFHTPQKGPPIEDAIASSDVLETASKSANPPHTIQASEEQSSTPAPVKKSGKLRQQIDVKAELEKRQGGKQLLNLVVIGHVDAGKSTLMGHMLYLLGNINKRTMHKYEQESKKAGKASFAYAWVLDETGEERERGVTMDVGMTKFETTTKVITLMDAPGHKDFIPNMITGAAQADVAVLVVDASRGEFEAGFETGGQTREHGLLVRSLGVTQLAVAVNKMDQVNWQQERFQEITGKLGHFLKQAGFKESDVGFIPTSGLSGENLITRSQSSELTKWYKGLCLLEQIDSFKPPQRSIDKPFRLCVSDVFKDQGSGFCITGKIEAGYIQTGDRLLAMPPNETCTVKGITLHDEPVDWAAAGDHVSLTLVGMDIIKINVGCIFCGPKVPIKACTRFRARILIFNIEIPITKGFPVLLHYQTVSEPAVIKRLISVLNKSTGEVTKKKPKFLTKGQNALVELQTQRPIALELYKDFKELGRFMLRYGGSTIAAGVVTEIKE
UniProt Q9BXL5: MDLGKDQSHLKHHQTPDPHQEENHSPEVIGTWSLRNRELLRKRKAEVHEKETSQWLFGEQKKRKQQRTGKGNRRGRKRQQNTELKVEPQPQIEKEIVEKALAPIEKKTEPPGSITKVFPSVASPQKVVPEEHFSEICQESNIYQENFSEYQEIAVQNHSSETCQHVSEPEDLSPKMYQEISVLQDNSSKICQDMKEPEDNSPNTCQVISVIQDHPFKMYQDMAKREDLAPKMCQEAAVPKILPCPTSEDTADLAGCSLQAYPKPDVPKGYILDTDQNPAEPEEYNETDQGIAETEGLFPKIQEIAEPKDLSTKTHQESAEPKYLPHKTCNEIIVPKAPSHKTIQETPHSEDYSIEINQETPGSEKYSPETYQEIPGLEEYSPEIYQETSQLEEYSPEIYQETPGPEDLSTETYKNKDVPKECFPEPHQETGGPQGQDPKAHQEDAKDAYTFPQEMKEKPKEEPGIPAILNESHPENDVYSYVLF
UniProt Q86XA9: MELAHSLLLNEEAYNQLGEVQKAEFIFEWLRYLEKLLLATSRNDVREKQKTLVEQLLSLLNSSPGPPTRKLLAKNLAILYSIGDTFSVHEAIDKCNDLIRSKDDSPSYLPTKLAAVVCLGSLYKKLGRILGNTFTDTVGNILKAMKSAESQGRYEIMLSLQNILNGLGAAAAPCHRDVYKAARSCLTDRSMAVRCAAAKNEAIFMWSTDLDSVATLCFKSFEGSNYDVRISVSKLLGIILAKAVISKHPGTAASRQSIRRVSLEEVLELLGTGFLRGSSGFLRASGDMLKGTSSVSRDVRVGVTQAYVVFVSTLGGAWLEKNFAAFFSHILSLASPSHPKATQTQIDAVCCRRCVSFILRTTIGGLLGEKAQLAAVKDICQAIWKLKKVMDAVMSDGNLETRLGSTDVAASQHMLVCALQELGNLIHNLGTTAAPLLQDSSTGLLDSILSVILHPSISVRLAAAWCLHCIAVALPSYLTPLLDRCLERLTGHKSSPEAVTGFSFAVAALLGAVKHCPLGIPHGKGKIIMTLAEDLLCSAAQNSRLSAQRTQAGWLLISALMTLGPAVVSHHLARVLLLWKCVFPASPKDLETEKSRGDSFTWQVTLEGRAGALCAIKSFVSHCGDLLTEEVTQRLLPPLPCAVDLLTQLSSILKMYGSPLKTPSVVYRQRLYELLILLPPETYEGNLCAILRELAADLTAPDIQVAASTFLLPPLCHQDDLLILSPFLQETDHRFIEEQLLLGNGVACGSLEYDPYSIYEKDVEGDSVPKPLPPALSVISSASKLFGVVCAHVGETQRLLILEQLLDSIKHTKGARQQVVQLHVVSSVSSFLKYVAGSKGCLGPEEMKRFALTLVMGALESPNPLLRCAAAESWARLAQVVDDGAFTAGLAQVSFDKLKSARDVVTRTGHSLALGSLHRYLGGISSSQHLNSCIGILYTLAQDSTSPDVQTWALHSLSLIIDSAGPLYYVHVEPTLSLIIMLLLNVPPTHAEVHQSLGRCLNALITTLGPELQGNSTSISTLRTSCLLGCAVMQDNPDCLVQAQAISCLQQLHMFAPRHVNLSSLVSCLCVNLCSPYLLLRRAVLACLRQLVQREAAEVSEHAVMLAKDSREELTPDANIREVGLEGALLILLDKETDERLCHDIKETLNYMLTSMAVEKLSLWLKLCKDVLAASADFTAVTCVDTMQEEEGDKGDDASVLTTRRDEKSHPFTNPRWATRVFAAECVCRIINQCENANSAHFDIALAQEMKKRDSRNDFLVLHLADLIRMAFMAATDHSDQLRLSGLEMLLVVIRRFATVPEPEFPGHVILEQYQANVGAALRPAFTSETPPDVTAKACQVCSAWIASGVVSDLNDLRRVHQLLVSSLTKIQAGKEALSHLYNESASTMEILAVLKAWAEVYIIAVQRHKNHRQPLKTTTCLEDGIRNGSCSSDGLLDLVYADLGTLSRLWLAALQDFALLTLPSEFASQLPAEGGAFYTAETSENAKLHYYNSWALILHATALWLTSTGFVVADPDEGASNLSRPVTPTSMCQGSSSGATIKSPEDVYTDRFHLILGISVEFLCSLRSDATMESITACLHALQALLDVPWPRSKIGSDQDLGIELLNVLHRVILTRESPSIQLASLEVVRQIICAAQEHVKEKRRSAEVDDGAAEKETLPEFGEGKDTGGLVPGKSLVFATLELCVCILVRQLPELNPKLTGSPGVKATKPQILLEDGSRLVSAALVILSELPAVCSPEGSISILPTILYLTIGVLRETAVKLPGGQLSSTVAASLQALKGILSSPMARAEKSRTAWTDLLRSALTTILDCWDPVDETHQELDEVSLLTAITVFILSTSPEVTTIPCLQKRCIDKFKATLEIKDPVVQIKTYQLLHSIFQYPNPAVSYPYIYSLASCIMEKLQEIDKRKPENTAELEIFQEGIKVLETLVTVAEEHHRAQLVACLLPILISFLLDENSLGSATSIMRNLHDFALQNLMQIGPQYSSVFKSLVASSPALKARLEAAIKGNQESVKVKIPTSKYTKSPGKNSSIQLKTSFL
UniProt P56524: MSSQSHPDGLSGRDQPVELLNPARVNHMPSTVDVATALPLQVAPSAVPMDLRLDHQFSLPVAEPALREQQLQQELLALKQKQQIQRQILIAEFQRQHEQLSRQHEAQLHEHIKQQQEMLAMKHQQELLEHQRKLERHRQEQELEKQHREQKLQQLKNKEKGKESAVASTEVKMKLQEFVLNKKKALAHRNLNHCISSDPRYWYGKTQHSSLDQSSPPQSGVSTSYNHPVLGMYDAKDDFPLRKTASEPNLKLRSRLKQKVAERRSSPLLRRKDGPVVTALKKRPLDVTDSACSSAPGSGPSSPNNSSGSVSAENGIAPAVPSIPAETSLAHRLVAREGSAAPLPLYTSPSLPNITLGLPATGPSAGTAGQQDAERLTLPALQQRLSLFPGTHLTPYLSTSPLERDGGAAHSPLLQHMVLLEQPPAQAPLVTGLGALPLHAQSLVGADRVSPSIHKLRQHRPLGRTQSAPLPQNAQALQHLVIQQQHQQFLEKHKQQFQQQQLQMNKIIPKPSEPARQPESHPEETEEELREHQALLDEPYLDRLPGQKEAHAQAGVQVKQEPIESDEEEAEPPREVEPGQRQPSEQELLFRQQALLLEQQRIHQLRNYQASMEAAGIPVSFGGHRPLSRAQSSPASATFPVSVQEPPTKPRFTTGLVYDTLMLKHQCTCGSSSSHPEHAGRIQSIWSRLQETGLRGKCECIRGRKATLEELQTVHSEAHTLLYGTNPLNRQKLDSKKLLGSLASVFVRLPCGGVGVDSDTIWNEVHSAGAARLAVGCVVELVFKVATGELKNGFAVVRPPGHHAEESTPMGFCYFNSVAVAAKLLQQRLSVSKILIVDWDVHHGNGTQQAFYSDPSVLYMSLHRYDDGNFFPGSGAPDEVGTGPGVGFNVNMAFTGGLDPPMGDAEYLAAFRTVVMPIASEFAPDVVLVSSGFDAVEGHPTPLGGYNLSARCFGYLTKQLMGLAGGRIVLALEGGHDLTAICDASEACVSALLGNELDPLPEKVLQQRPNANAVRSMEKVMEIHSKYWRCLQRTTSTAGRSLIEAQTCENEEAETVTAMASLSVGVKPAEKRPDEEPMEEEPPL
UniProt Q5T447: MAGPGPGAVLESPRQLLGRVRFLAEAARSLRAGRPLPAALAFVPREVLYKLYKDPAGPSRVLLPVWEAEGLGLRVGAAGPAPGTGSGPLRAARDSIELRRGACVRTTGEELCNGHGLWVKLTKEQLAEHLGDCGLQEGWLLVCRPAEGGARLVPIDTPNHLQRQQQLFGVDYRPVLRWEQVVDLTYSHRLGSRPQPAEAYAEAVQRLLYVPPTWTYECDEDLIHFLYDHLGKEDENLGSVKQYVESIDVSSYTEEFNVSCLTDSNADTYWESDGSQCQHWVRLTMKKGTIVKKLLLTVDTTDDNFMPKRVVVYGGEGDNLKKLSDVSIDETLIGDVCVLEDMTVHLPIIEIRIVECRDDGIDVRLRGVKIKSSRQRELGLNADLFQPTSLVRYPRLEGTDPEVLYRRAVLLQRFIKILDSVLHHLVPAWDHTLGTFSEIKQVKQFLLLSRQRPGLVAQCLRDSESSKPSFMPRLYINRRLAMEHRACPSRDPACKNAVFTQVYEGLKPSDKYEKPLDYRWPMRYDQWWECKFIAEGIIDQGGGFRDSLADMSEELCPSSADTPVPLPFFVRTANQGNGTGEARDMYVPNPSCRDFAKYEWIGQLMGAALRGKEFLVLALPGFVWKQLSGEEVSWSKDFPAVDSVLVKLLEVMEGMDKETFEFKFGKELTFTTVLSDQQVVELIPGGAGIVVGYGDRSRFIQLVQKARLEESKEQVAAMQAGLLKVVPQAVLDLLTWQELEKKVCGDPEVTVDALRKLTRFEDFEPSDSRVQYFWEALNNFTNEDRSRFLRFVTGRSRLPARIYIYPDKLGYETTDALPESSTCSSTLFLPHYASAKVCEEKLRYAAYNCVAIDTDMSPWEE

Assays:
Assay in all cases: log2 fold change, soluble protein after heating vs DMSO (PISA); higher = thermal stabilisation; K562 cells, 10 uM, 30 min; active = over 0.2 and 3.5 SD of the protein, either way, in both replicates (recomputed)
IRAK-1-4 Inhibitor I = compound: C1COCCN1CCN2C3=CC=CC=C3N=C2NC(=O)C4=CC(=CC=C4)[N+](=O)[O-] [IRAK-1-4 Inhibitor I]
In short: (§1)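 For each measurement, 10 μM compound was applied for 30 min to K562 cells at 2×10^6 cells/mL. Aliquots were heated for 3 min across 48°C-58°C, pooled, and extracted in PBS with 0.5% NP-40 at 4°C; the supernatant after 21,000xg for 90 min was soluble protein. This was quantified by TMTpro 16plex LC-MS/MS with channel sums equalised, and thermal stability was reported relative to control samples from duplicates, on a log2 fold-change scale.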

ibrutinib = compound: C=CC(=O)N1CCC[C@@H](n2nc(-c3ccc(Oc4ccccc4)cc3)c3c(N)ncnc32)C1 [ibrutinib]
In short: as §1

[1] = compound: CC(=O)c1cnc2ccc(-c3cc(Cl)c(O)c(Cl)c3)nc2c1N[C@H]1CC[C@H](CN(C)C)CC1
In short: as §1

ralimetinib = compound: CC(C)(C)Cn1c(N)nc2ccc(-c3[nH]c(C(C)(C)C)nc3-c3ccc(F)cc3)nc21 [ralimetinib]
In short: as §1

[2] = compound: CC(C)(O)CC(=O)NCCn1ccc2ncnc(Nc3ccc(Oc4cccc(C(F)(F)F)c4)c(Cl)c3)c21
In short: as §1

[3] = compound: CC(C)C1=C2N=C(C=C(N2N=C1)NCC3=CC=CC=C3)NCCCCCCN
In short: as §1

[4] = compound: CC(C)C[C@@H](C=O)NC(=O)[C@H](CC(C)C)NC(=O)[C@H](CC(C)C)NC(=O)OCc1ccccc1
In short: as §1

pinometostat = compound: CC(C)N(C[C@H]1O[C@@H](n2cnc3c(N)ncnc32)[C@H](O)[C@@H]1O)[C@H]1C[C@@H](CCc2nc3cc(C(C)(C)C)ccc3[nH]2)C1 [pinometostat]
In short: as §1

[5] = compound: CC1=C(C(CC(=O)N1)C2=CC=C(C=C2)C(F)(F)F)C(=O)NC3=C(C=C4C(=C3)C=NN4)F
In short: as §1

[6] = compound: CC1=C(C2=C(C=C1)C(=O)C3=CC=CC=C3N2CCCN)C
In short: as §1

[7] = compound: CC1=C(C=C(C=C1)NC(=O)C2=CC(=CC=C2)C(C)(C)C#N)NC3=CC4=C(C=C3)N=CN(C4=O)C
In short: as §1

[8] = compound: CC1=C(C=C(C=C1)NC(=O)C2=CC(=CC=C2)N(C)C)NC(=O)C3=CC=C(C=C3)O
In short: as §1

[9] = compound: CC1=CC=C(C=C1)SC2=C3C=C(SC3=CN=C2)C(=O)N
In short: as §1

[10] = compound: CC1=NC(=CC=C1)C2=C(N=C(N2)C(C)(C)C)C3=CC4=NC=CN=C4C=C3
In short: as §1

Nexturastat A = compound: CCCCN(Cc1ccc(C(=O)NO)cc1)C(=O)Nc1ccccc1 [Nexturastat A]
In short: as §1

vemurafenib = compound: CCCS(=O)(=O)Nc1ccc(F)c(C(=O)c2c[nH]c3ncc(-c4ccc(Cl)cc4)cc23)c1F [vemurafenib]
In short: as §1

[11] = compound: CCCS(=O)(=O)Nc1ccc(F)c(C(=O)c2c[nH]c3ncc(Cl)cc23)c1F
In short: as §1

[12] = compound: CCCc1cc(C)[nH]c(=O)c1CNC(=O)c1cc(-c2ccnc(N3CCN(C)CC3)c2)cc2c1cnn2C(C)C
In short: as §1

givinostat = compound: CCN(CC)Cc1ccc2cc(COC(=O)Nc3ccc(C(=O)NO)cc3)ccc2c1 [givinostat]
In short: as §1

barasertib = compound: CCN(CCCOc1ccc2c(Nc3cc(CC(=O)Nc4cccc(F)c4)[nH]n3)ncnc2c1)CCOP(=O)(O)O [barasertib]
In short: as §1

Measured: log2 fold change

HBG1 (UniProt P69891)
inactive: IRAK-1-4 Inhibitor I 0.004 | ibrutinib 0.025 | [1] -0.023 | ralimetinib -0.024 | [2] -0.025 | [3] 0.119 | [4] -0.051 | pinometostat -0.088 | [5] 0.019 | [6] 0.16 | [7] 0.016 | [8] -0.052 | [9] 0.07 | [10] 0.062 | Nexturastat A -0.026 | vemurafenib 0.056 | [11] 0.006 | [12] -0.028 | givinostat -0.089 | barasertib 0.014

GYPC (UniProt P04921)
inactive: IRAK-1-4 Inhibitor I 0.03 | ibrutinib 0.013 | [1] 0.081 | ralimetinib 0.117 | [2] -0.031 | [3] 0.004 | [4] 0.012 | pinometostat -0.053 | [5] -0.013 | [6] -0.265 | [7] 0.049 | [8] -0.099 | [9] 0.006 | [10] 0.033 | Nexturastat A -0.028 | vemurafenib 0.208 | [11] 0.008 | [12] -0.021 | givinostat 0.147 | barasertib -0.076

HDHD3 (UniProt Q9BSH5)
inactive: IRAK-1-4 Inhibitor I 0.013 | ibrutinib 0.013 | [1] -0.13 | ralimetinib -0.05 | [2] -0.047 | [3] -0.019 | [4] 0.018 | pinometostat -0.038 | [5] -0.021 | [6] 0.071 | [7] 0.051 | [8] -0.005 | [9] -0.007 | [10] -0.091 | Nexturastat A -0.14 | vemurafenib 0.002 | [11] -0.003 | [12] -0.013 | givinostat 0.018 | barasertib 0.013

HACD3 (UniProt Q9P035)
inactive: IRAK-1-4 Inhibitor I 0.001 | ibrutinib -0.043 | [1] 0.005 | ralimetinib -0.089 | [2] -0.006 | [3] -0.088 | [4] -0.014 | pinometostat 0.007 | [5] -0.014 | [6] 0.047 | [7] -0.019 | [8] -0.014 | [9] -0.008 | [10] 0.015 | Nexturastat A 0.012 | vemurafenib -0.017 | [11] 0.04 | [12] 0.033 | givinostat 0.003 | barasertib -0.003

HACL1 (UniProt Q9UJ83)
inactive: IRAK-1-4 Inhibitor I 0.021 | ibrutinib -0.01 | [1] -0.01 | ralimetinib -0.002 | [2] -0.094 | [3] 0.054 | [4] -0.081 | pinometostat -0.019 | [5] 0.003 | [6] 0 | [7] 0.041 | [8] 0 | [9] 0 | [10] -0.024 | Nexturastat A -0.119 | vemurafenib 0.03 | [11] -0.003 | [12] -0.008 | givinostat -0.011 | barasertib -0.011

HDAC3 isoform 2 (UniProt O15379)
inactive: IRAK-1-4 Inhibitor I -0.018 | ibrutinib 0.035 | [1] -0.231 | ralimetinib 0.035 | [2] -0.047 | [3] 0.038 | [4] -0.062 | pinometostat -0.006 | [5] -0.02 | [6] 0.026 | [7] -0.074 | [8] 0.066 | [9] -0.106 | [10] 0.025 | Nexturastat A -0.104 | vemurafenib 0.028 | [11] -0.01 | [12] -0.038 | givinostat 0.128 | barasertib -0.052

HBS1L (UniProt Q9Y450)
inactive: IRAK-1-4 Inhibitor I -0.013 | ibrutinib -0.004 | [1] -0.042 | ralimetinib -0.016 | [2] -0.018 | [3] -0.027 | [4] -0.002 | pinometostat 0 | [5] -0.027 | [6] 0.109 | [7] 0.034 | [8] -0.014 | [9] -0.01 | [10] 0.05 | Nexturastat A -0.028 | vemurafenib -0.007 | [11] 0.013 | [12] 0 | givinostat 0.029 | barasertib 0.043

3 consecutive records already listed, quoted:
HACL1 (UniProt Q9UJ83)
inactive: IRAK-1-4 Inhibitor I 0.021 | ibrutinib -0.01 | [1] -0.01 | ralimetinib -0.002 | [2] -0.094 | [3] 0.054 | [4] -0.081 | pinometostat -0.019 | [5] 0.003 | [6] 0 | [7] 0.041 | [8] 0 | [9] 0 | [10] -0.024 | Nexturastat A -0.119 | vemurafenib 0.03 | [11] -0.003 | [12] -0.008 | givinostat -0.011 | barasertib -0.011

HDAC3 isoform 2 (UniProt O15379)
inactive: IRAK-1-4 Inhibitor I -0.018 | ibrutinib 0.035 | [1] -0.231 | ralimetinib 0.035 | [2] -0.047 | [3] 0.038 | [4] -0.062 | pinometostat -0.006 | [5] -0.02 | [6] 0.026 | [7] -0.074 | [8] 0.066 | [9] -0.106 | [10] 0.025 | Nexturastat A -0.104 | vemurafenib 0.028 | [11] -0.01 | [12] -0.038 | givinostat 0.128 | barasertib -0.052

HBS1L (UniProt Q9Y450)
inactive: IRAK-1-4 Inhibitor I -0.013 | ibrutinib -0.004 | [1] -0.042 | ralimetinib -0.016 | [2] -0.018 | [3] -0.027 | [4] -0.002 | pinometostat 0 | [5] -0.027 | [6] 0.109 | [7] 0.034 | [8] -0.014 | [9] -0.01 | [10] 0.05 | Nexturastat A -0.028 | vemurafenib -0.007 | [11] 0.013 | [12] 0 | givinostat 0.029 | barasertib 0.043

Later entries

HEMGN (UniProt Q9BXL5)
inactive: IRAK-1-4 Inhibitor I 0.003 | ibrutinib -0.021 | [1] 0.003 | ralimetinib -0.018 | [2] 0.042 | [3] 0.057 | [4] 0.016 | pinometostat -0.03 | [5] 0.018 | [6] 0.07 | [7] -0.015 | [8] 0.023 | [9] 0.007 | [10] -0.003 | Nexturastat A -0.038 | vemurafenib -0.016 | [11] -0.013 | [12] -0.022 | givinostat -0.061 | barasertib -0.028

GTF2F2 (UniProt P13984)
inactive: IRAK-1-4 Inhibitor I 0.064 | ibrutinib -0.013 | [1] -0.035 | ralimetinib -0.108 | [2] -0.058 | [3] -0.01 | [4] 0.003 | pinometostat -0.004 | [5] -0.017 | [6] 0.08 | [7] 0.004 | [8] -0.008 | [9] 0.018 | [10] 0.029 | Nexturastat A 0 | vemurafenib 0.023 | [11] 0.005 | [12] 0.005 | givinostat 0.025 | barasertib 0.022

HEATR5A (UniProt Q86XA9)
inactive: IRAK-1-4 Inhibitor I 0.03 | ibrutinib 0.005 | [1] -0.053 | ralimetinib -0.01 | [2] -0.117 | [3] -0.181 | [4] 0.011 | pinometostat 0.1 | [5] 0.005 | [6] 0.002 | [7] 0.087 | [8] 0.005 | [9] -0.029 | [10] 0.075 | Nexturastat A 0.243 | vemurafenib -0.024 | [11] 0.175 | [12] 0.034 | givinostat 0.033 | barasertib 0.112

HDAC4 (UniProt P56524)
inactive: IRAK-1-4 Inhibitor I 0.042 | ibrutinib 0.023 | [1] -0.123 | ralimetinib 0.112 | [2] -0.011 | [3] -0.043 | [4] -0.066 | pinometostat -0.041 | [5] 0.064 | [6] -0.036 | [7] 0.032 | [8] -0.066 | [9] -0.081 | [10] -0.033 | Nexturastat A 0.088 | vemurafenib -0.128 | [11] -0.099 | [12] 0.012 | givinostat 0.356 | barasertib -0.18

HECTD3 (UniProt Q5T447)
inactive: IRAK-1-4 Inhibitor I -0.066 | ibrutinib 0.031 | [1] 0.035 | ralimetinib 0.079 | [2] -0.097 | [3] -0.105 | [4] 0.022 | pinometostat 0.073 | [5] 0.02 | [6] -0.06 | [7] -0.027 | [8] 0.046 | [9] -0.089 | [10] 0.005 | Nexturastat A 0.167 | vemurafenib -0.1 | [11] -0.144 | [12] 0.018 | givinostat 0.038 | barasertib -0.06

HARS2 (UniProt P49590)
inactive: IRAK-1-4 Inhibitor I 0.029 | ibrutinib 0.036 | [1] -0.048 | ralimetinib -0.014 | [2] -0.047 | [3] 0.003 | [4] -0.016 | pinometostat -0.014 | [5] 0.035 | [6] 0.043 | [7] -0.039 | [8] 0.003 | [9] -0.009 | [10] -0.053 | Nexturastat A -0.018 | vemurafenib -0.009 | [11] -0.057 | [12] -0.016 | givinostat -0.096 | barasertib -0.011

HCFC1 isoform 4 (UniProt P51610)
inactive: IRAK-1-4 Inhibitor I 0.01 | ibrutinib -0.022 | [1] 0.011 | ralimetinib -0.025 | [2] -0.083 | [3] 0.153 | [4] -0.004 | pinometostat -0.017 | [5] -0.057 | [6] 0.141 | [7] -0.011 | [8] -0.036 | [9] 0.008 | [10] 0.018 | Nexturastat A -0.006 | vemurafenib 0.001 | [11] 0.036 | [12] -0.031 | givinostat 0.041 | barasertib -0.028

GSTZ1 (UniProt G3V4T6)
inactive: IRAK-1-4 Inhibitor I 0.027 | ibrutinib 0.018 | [1] -0.03 | ralimetinib -0.069 | [2] 0.053 | [3] 0.076 | [4] 0.054 | pinometostat -0.024 | [5] -0.024 | [6] 0 | [7] -0.014 | [8] 0 | [9] -0.001 | [10] 0.025 | Nexturastat A -0.057 | vemurafenib -0.049 | [11] -0.02 | [12] -0.045 | givinostat -0.016 | barasertib 0.029

HEATR6 (UniProt Q6AI08)
inactive: IRAK-1-4 Inhibitor I 0.119 | ibrutinib -0.043 | [1] -0.309 | ralimetinib -0.018 | [2] -0.069 | [3] -0.042 | [4] 0.096 | pinometostat -0.061 | [5] 0.07 | [6] 0.11 | [7] 0.101 | [8] -0.01 | [9] 0 | [10] 0.012 | Nexturastat A -0.079 | vemurafenib -0.094 | [11] 0.024 | [12] -0.038 | givinostat 0.05 | barasertib 0.069
